The values that follow come from article PMC6868398.

Amino acid sequences for entries named in this document (tags omitted). A change or cut given only in a name is not applied to a line headed by its entry.
UniProt Q18605: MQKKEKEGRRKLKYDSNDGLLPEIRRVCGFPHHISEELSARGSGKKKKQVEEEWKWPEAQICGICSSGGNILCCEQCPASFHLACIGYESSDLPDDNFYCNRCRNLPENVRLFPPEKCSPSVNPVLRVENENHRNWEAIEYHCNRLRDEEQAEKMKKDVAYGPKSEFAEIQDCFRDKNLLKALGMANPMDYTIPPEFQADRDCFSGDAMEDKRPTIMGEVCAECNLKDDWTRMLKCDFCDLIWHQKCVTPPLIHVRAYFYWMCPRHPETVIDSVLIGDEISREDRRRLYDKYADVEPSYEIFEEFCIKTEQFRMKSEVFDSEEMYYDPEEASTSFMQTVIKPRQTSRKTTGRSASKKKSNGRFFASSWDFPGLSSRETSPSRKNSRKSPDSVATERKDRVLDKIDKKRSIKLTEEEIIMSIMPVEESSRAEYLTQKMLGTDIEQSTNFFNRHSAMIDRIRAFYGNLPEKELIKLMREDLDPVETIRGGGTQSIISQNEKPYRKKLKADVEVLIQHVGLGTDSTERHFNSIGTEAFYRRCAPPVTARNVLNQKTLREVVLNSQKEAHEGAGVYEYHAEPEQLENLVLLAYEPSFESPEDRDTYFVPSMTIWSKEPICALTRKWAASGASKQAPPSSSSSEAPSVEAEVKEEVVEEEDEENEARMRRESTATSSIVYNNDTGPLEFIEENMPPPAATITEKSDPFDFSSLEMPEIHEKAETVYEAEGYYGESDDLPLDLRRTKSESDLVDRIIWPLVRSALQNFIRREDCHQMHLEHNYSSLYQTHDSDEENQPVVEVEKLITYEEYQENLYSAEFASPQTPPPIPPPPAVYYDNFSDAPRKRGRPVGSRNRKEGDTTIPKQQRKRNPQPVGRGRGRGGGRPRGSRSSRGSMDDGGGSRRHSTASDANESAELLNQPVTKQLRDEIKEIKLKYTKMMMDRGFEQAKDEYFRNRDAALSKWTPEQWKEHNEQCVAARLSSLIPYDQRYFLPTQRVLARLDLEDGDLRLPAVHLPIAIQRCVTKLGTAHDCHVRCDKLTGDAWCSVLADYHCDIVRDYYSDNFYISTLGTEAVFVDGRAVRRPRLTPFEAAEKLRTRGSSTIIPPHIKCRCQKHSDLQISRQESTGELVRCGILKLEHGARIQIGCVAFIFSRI

Common to all, as to assay: two-hybrid; LexA (BD)/B42 (AD) system, cross-mating of EGY42a (BD + pSH18-34 reporter) and TB50alpha (AD) yeast, beta-galactosidase (X-Gal) staining after 48 h at 25°C; each hetero-interaction tested in both directions
Test [1] concerns the target ATHP-1 full length, yeast two-hybrid fusion (C. elegans) (UniProt Q18605).
The target in test [2] is ATHP-1 C-terminal fragment, yeast two-hybrid fusion (C. elegans).
The target in test [3] is SIN-3 N-terminal fragment, yeast two-hybrid fusion (C. elegans).

Results are given in words; binding and its absence hold for the method and conditions named. Binding can be weak; no strength is given. Where a sequence is shown, tags or fusion partners need not be part of it.

B1: MRG-1 full length, yeast two-hybrid fusion (protein, UniProt A7DTF0 1-337)
chain: MSSKKNFEVGENVACIYKGKPYDAKITDIKTNSDGKELYCVHFKGWNNRYDEKIPVGEEKDRIFKGTASEYAEKHNAELPTTALKPKKKSLAAEAPRDDRDDTPGTSKGKKAKSVTIAPVMTADDMKVELPKPLRKILIDDYDLVCRYFINIVPHEYSVDQIIEDYIKTIPVSNEQMRTVDDLLIEYEEADIKITNLALICTARGLVDYFNVTLGSSYQLLYKFERPQYNDLVKKRAMEKGIDITNPTALQDSGFRPSQEYGIVHFLRMLAKLPDYLKLTQWNDHVINRIMIGVHDLIVFLNKNHGKYYRGSSDYQGASNDYYRRSLAADDGVGANQ
Turning to B1, in test [1], the binding result is “binds”.

B2: CFP-1 full length, yeast two-hybrid fusion (protein, UniProt Q9XUE7 1-508)
chain: MSNKEIEDNEDVWKERCMNCIRCNDEKNCGTCWPCRNGKTCDMRKCFSAKRLYNEKVKRQTDENLKAIMAKTAQREAAHQAATTTAPSAPVVIEQQVEKKKRGRKKGSGNGGAAAAAQQRKANIINERDYVPNRPTRQQSADLRRKRTQLNAEPDKHPRQCLNPNCIYESRIDSKYCSDECGKELARMRLTEILPNRCKQYFFEGPSGGPRSLEDEIKPKRAKINREVQKLTESEKNMMAFLNKLVEFIKTQLKLQPLGTEERYDDNLYEGCIVCGLPDIPLLKYTKHIELCWARSEKAISFGAPEKNNDMFYCEKYDSRTNSFCKRLKSLCPEHRKLGDEQHLKVCGYPKKWEDGMIETAKTVSELIEMEDPFGEEGCRTKKDACHKHHKWIPSLRGTIELEQACLFQKMYELCHEMHKLNAHAEWTTNALSIMMHKQPNIIDSEQMSLFNKSQSTSSSASAHGATTPISSTSSSSSSSSKNDDEMEDTAEFLANLAVQKEEETQNN
In the case of B2, the binding result in test [2], in test [3] and in test [1] was “binds” each time.
